# Test results taken from paper PMC11784139.
# Where a protein sequence is shown, tags need not be part of it. For some assays here: The exact form of at least one protein or probe is not confirmed.
# Columns and labels:
# [1] = test system: T1, 6xHis-APR1 (Acinetobacter venetianus RAG-1); experiment: EMSA; details: APR1 0-5.10 uM, DNA 110 nM; EMSA: 5 mM Tris-HCl pH 7.5, 0.1 mM EDTA, 5 mM MgCl2, 10 mM KCl, 0.2 mM DTT, 30 C, 30 min, native PAGE in 0.5x TBE; recombinant protein; residues 1-335; protein details: N-terminal 6xHis (pET-28a); probe letters rebuilt from the primers and the genome
# T1 sequence (looked up): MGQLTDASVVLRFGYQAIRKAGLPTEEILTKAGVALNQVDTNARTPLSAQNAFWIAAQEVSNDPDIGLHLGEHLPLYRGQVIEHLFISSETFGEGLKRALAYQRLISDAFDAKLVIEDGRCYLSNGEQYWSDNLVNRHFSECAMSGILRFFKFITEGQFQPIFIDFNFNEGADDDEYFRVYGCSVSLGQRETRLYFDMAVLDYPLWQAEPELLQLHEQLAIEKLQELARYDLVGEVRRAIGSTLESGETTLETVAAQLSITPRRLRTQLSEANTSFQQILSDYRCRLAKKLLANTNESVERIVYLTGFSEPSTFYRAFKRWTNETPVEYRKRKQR
# [2] = test system: T1, 6xHis-APR1 (Acinetobacter venetianus RAG-1); experiment: MST; details: NT-647-NHS labeled APR1 10 uM, DNA 0.64-41400 nM, tag of MST protein not explicitly stated; MST: 50 mM PBS pH 7.2-7.4, temperature not stated; recombinant protein; residues 1-335; protein details: N-terminal 6xHis (pET-28a); probe letters rebuilt from the primers and the genome
sequence,measurement,setting,value
AATCAATTGTTTATACTCTATTAACAGCTTGTTTTATAACATTATGATTGCTAAAGGTTAACTCGATGCTTTGTATGTGAGTGTATTGAGCTTTCTATTTACATCAAAATTTTATAACAAATTATTTATACATTCATTGTGATTAACATATTTTTCATACTTTACACATATTACTTAAATTAAGTTTTTTGGTTATACGGAAAAAATGAATTTTTCTTAAACTCTGATCCTTTAATAAATTGCAAATCCAAGCAAAAATCTCAGGATTTTTTACACTCTCTTTTTCTAAAAATGTCCCGAAGTGACATGAAAAAACCGATGAATGACTAAACTTGACATTGTGTATTGTCAAATTTGTGCTTTAATAAAGTCATGGTTTATACAGGGTAT (double strand) [almA promoter],binding result,[1],binds
same,Kd,[2],97.2 nM
